The assay concerns the target Guanine nucleotide-binding protein G(I)/G(S)/G(T) subunit beta-1/gamma-2 (Homo sapiens, UniProt P59768+P62873). Kind of assay: Inhibition of G-protein beta1gamma2 (unknown origin) by flow cytometry. The class given is protein-complex assay. Background: A flow cytometer gives signals particle by particle.

The chains behind the UniProt entries cited, without tags or fusion partners. Residues count along the entry.
UniProt P59768, 2-71 limits assumed: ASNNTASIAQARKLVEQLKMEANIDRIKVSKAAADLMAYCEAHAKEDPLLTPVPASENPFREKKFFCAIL
UniProt P62873, 2-340 limits assumed: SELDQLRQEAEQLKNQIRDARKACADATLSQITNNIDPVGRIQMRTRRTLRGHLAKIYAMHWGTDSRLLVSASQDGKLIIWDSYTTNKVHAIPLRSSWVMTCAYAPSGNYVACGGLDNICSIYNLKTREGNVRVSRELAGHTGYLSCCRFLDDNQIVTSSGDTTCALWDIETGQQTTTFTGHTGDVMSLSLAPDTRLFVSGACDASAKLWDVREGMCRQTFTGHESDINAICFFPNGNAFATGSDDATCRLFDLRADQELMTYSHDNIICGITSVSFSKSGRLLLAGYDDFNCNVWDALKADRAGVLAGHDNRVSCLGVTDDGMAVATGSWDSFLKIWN

The IC50 is the midpoint of a concentration-inhibition curve. `COc1cc2c(c(OC)c1OC)-c1ccc(OC)c(=O)cc1C(N)CC2` (stereo unspecified) registered an IC50 of 5 µM.

Values taken from ChEMBL document CHEMBL4354836, “Heterotrimeric G Proteins as Therapeutic Targets in Drug Discovery” (J Med Chem, 2020).
